The name of at least one read-out is uncertain.
Test system: MRSA 43300
Assay: Antibacterial activity, NCCLS dilution method (Table 9)
Type: cell-based, S. aureus
Details: labels marked a tested as a mixture of diastereomers
Excerpt: NCCLS standards for antimicrobial susceptibility testing using the dilution method were followed. See: Performance Standards for Antimicrobial Susceptibility Testing; Fourteenth Informational Supplement. NCCLS Document M100-S14 (ISBN 1-56238-516-X), 2004. NCCLS, 940 West Valley Road, Suite 1400, Wayne, Pa. 19087-1898 USA, 2004; Methods for Dilution Antimicrobial Susceptibility Tests for Bacteria that Grow Aerobically; Approved Standard—Sixth Edition. NCCLS document M7-A6 (IBSBN 1-56238-486-4), NCCLS, 940 West Valley Road, Suite 1400, Wayne, Pa. 19087-1898 USA, 2003, which are hereby incorporated by reference in their entirety.

Row | Compound | MRSA 43300 MIC [µg/mL]
1 | COC(=O)c1c(C)cc2c(c1O)[C@]1(O)C(=O)c3cc4c(c(O)c3C(=O)[C@]1(OC)[C@H](O)C2)C(=O)C=C(N[C@H]1O[C@@H](C)[C@H](OC)[C@@H](O)[C@H]1OC)C4(C)O (single isomer, unassigned) [Example 55] | 16
2 | COC(=O)c1c(C)cc2c(c1O)[C@]1(O)C(=O)c3cc4c(c(O)c3C(=O)[C@]1(OC)[C@H](O)C2)C(=O)C=C(N[C@H]1O[C@@H](C)[C@H](OC)[C@@H](O)[C@H]1OC)C4(O)c1ccccc1 (single isomer, unassigned) [Example 56] | 16

Source: US8754054B2, “Antibacterial compounds, methods of making them, and uses thereof” (Albany Molecular Research, Inc., priority 2010, dated 2014)
